Source: patent publication US20240116984A1 (University of Notre Dame du Lac, priority 2021, published 2024)

Experiment: general procedure: Fmoc solid-phase peptide synthesis; Fmoc-capped polystyrene rink amide MBHA resin (100-200 mesh); HCTU/NMM
Details: whole synthesis, scale of the general procedure 0.05-0.15 mmol

Going from Ac-VQI[aIle]NK-NH2 to Ac-VQ[aIle]INK-NH2, the isolated yield falls from 75% to 45%.

Compared with Ac-VQ[aIle]VYK-NH2, “Ac-Val-Gln-Ile-Val-Tyr-aLys-NH2 (VQIVYK; N-acetyl, C-amide, aza-amino acids; MOD_RES (1)..(1) N-term acetylation; MOD_RES (6)..(6) N-amination of the amino acid amide moiety; MOD_RES (6)..(6) C-term amidation)” is higher in isolated yield: 55% for the first, 99% for the second.

Compared with Ac-Val-Gln-Ile-Val-aTyr-Lys-NH2, Ac-Val-Gln-Ile-aVal-Tyr-Lys-NH2 is higher in isolated yield: 38% for the first, 88% for the second.

Compared with Ac-Val-Gln-Ile-aVal-Tyr-aLys-NH2, Ac-Val-Gln-aIle-Val-aTyr-Lys-NH2 is higher in isolated yield: 42% for the first, 44% for the second.

Compared with Ac-aVal-Gln-Ile-Ile-Asn-Lys-NH2, “Ac-aVal-Gln-Ile-Val-Tyr-Lys-NH2 (VQIVYK; N-acetyl, C-amide, aza-amino acids; MOD_RES (1)..(1) N-term acetylation; MOD_RES (1)..(1) N-amination of the amino acid amide moiety; MOD_RES (6)..(6) C-term amidation)” is higher in isolated yield: 81% for the first, 88% for the second.

First: Ac-aVal-Gln-Ile-Val-aTyr-Lys-NH2
Second: Ac-aVal-Gln-aIle-Ile-Asn-Lys-NH2 (VQIINK; N-acetyl, C-amide, non-natural residues; MOD_RES (1)..(1) N-term acetylation; MOD_RES (1)..(1) N-amination of the amino acid amide moiety; MOD_RES (3)..(3) N-amination of the amino acid amide moiety; MOD_RES (6)..(6) C-term amidation)
The isolated yield of the first is lower: 58% for the first, 81% for the second.

First: Ac-aVal-Gln-aIle-Val-Tyr-Lys-NH2 (VQIVYK; N-acetyl, C-amide, aza-amino acids; MOD_RES (1)..(1) N-term acetylation; MOD_RES (1)..(1) N-amination of the amino acid amide moiety; MOD_RES (3)..(3) N-amination of the amino acid amide moiety; MOD_RES (6)..(6) C-term amidation)
Second: Ac-aVal-Gln-aIle-Val-aTyr-Lys-NH2 (VQIVYQ; N-acetyl, C-amide, aza-amino acids; MOD_RES (1)..(1) N-term acetylation; MOD_RES (1)..(1) N-amination of the amino acid amide moiety; MOD_RES (3)..(3) N-amination of the amino acid amide moiety; MOD_RES (5)..(5) N-amination of the amino acid amide moiety; MOD_RES (6)..(6) C-term amidation)
The isolated yield of the first is higher: 52% for the first, 28% for the second.

Non-standard residues stand in square brackets, D forms with d. aIle = CC[C@@H](C)[C@H](N)C(=O)O
